# Where a name gives a salt, the structure may show the parent alone. This is one part of the list. This is a noisy data set.
# System: Peyronie's disease tunica albuginea primary fibroblasts
# Assay: cell viability (DRAQ5 nuclear stain) relative to TGF-beta1-only control; higher = more viable cells
# Conditions: 10 µM; TGF-beta1 10 ng/mL; 72 h
row,Structure (SMILES),cell viability
1,CN(C)Cc1ccc(S(=O)(=O)n2ccc(/C=C/C(=O)NO)c2)cc1 [Resminostat],60.8%
2,CN(C)CC/C=C1/c2ccccc2COc2ccc(CC(=O)O)cc21 [Olopatadine HCl],91.1%
3,Cc1cc(-c2ccc(/N=N/c3ccc4c(S(=O)(=O)O)cc(S(=O)(=O)O)c(N)c4c3O)c(C)c2)ccc1/N=N/c1ccc2c(S(=O)(=O)O)cc(S(=O)(=O)O)c(N)c2c1O [Evans Blue],93.5%
4,CC(O)c1ccc(S(=O)(=O)NC(=O)NC2CCCCC2)cc1 (stereo unspecified) [Hydroxyhexamide],99%
5,CCCCCCCCCCCC[N+](C)(C)CCOc1ccccc1 [Domiphen Bromide],33.6%
6,Cc1ccc(-n2nc(C(C)(C)C)cc2NC(=O)Nc2ccc(OCCN3CCOCC3)c3ccccc23)cc1 [Doramapimod (BIRB 796)],116%
7,CCC(=O)OCC(=O)[C@@]1(OC(=O)CC)[C@@H](C)C[C@H]2[C@@H]3CCC4=CC(=O)C=C[C@]4(C)[C@@]3(Cl)[C@@H](O)C[C@@]21C [Beclomethasone dipropionate],83.1%
8,O=C(/C=C/C=C/c1ccc2c(c1)OCO2)N1CCCCC1 [Piperine],94.4%
9,CCN(CC)Cc1cc(Nc2ccnc3cc(Cl)ccc23)ccc1O [Amodiaquine dihydrochloride dihydrate],84.2%
10,CCN(CC)Cc1cc(Nc2ccnc3cc(Cl)ccc23)ccc1O [Amodiaquine hydrochloride],80.9%
11,O=C1/C(=C2\Nc3ccc(S(=O)(=O)O)cc3C2=O)Nc2ccc(S(=O)(=O)O)cc21 [Indigo carmine],81.1%
12,COc1ccccc1N1CCN(CCCNc2cc(=O)n(C)c(=O)n2C)CC1 [Urapidil HCl],67.8%
13,COc1nc(N)nc2c1ncn2[C@@H]1O[C@H](CO)[C@@H](O)[C@@H]1O [Nelarabine],99.2%
14,O=C1NC(=O)[C@@H](c2cn3c4c(cccc24)CCC3)[C@@H]1c1c[nH]c2ccccc12 [Tivantinib (ARQ 197)],62.7%
15,CCc1cnn2c(NCc3ccc[n+]([O-])c3)cc(N3CCCC[C@H]3CCO)nc12,55.7%
16,CC(C)NCC(O)c1cc(O)cc(O)c1 (stereo unspecified) [Metaproterenol Sulfate],96.3%
17,C[n+]1ccccc1/C=N/O [Pralidoxime chloride],98.3%
18,Cc1cccc(Nc2ccccc2C(=O)O)c1C [Mefenamic Acid],100%
19,CCC(C)n1ncn(-c2ccc(N3CCN(c4ccc(OCC5COC(Cn6cncn6)(c6ccc(Cl)cc6Cl)O5)cc4)CC3)cc2)c1=O (stereo unspecified) [Itraconazole],96.6%
20,CCOc1cc(N)c(Cl)cc1C(=O)NCC1CN(Cc2ccc(F)cc2)CCO1 (stereo unspecified) [Mosapride Citrate],98.9%
21,CCOc1cc(N)c(Cl)cc1C(=O)NCC1CN(Cc2ccc(F)cc2)CCO1 (stereo unspecified) [Mosapride],93.6%

# From entry 3 up to 7, copied from above:
row,Structure (SMILES),cell viability
3,Cc1cc(-c2ccc(/N=N/c3ccc4c(S(=O)(=O)O)cc(S(=O)(=O)O)c(N)c4c3O)c(C)c2)ccc1/N=N/c1ccc2c(S(=O)(=O)O)cc(S(=O)(=O)O)c(N)c2c1O [Evans Blue],93.5%
4,CC(O)c1ccc(S(=O)(=O)NC(=O)NC2CCCCC2)cc1 (stereo unspecified) [Hydroxyhexamide],99%
5,CCCCCCCCCCCC[N+](C)(C)CCOc1ccccc1 [Domiphen Bromide],33.6%
6,Cc1ccc(-n2nc(C(C)(C)C)cc2NC(=O)Nc2ccc(OCCN3CCOCC3)c3ccccc23)cc1 [Doramapimod (BIRB 796)],116%
7,CCC(=O)OCC(=O)[C@@]1(OC(=O)CC)[C@@H](C)C[C@H]2[C@@H]3CCC4=CC(=O)C=C[C@]4(C)[C@@]3(Cl)[C@@H](O)C[C@@]21C [Beclomethasone dipropionate],83.1%

# From the supplement of paper PMC9744312
